According to PubChem BioAssay AID504467 (National Center for Advancing Translational Sciences (NCATS), 2011):
In all, about 330,000 compounds went through this assay and about 7,700 (2.3%) were called active. Inconclusive means that the source gave no clear call. Such entries were picked first, then a sample of the others. Calls follow the shape of the dose curve; as a rule, active = well fitted inhibition curve with a large enough effect; inconclusive = small, poorly fitted or top-dose-only effect, or effect the other way; inactive = flat fitted curve, though single readings scatter. Where the call is inconclusive, the potency comes from a doubtful curve fit.

Test: qHTS screen for small molecules that inhibit ELG1-dependent DNA repair in human embryonic kidney (HEK293T) cells expressing luciferase-tagged ELG1; also: nearly all actives have a fitted effect of over 55% in size
Conditions: HEK293T ELG1-luciferase reporter, luminescence, 16 h, DNA damage induced by 5-fluorouridine; activity change, negative = inhibition: at 46.1 µM (top of the series)
In short: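 Reporter activity after DNA damage by 5-fluorouridine is monitored. Compound-treated cells incubate 16 hr at 37 °C, then ONE-Glo is added for 30 min before luminescence reading.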
% is scaled to controls: 0 for no effect and ±100 for the full control effect; potency is read from the fitted curve at half-maximal effect.

SMILES	Potency	activity change, negative = inhibition
COc1ccc(Cc2nc3ccc(C(=O)NCCCSC)cc3o2)cc1OC	inconclusive: 13 µM [activator, partial curve]	
O=C1NC2(CCCCC2)C(=O)N1/N=C/c1ccc(O)cc1O		inactive: 11.1%
O=C(Nc1cccc(Cl)c1)c1ccc2c(c1)SC1=NS(=O)(=O)CCN12	inconclusive: 25.9 µM [activator, partial curve, poor fit]	
Cc1ccc(NC(=O)CCS(=O)(=O)c2cc3[nH]c(=O)c(=O)[nH]c3cc2C)cc1		inactive: 13.6%
O=C(C[n+]1ccccc1)Nc1ccc(Oc2ccccc2)cc1		inactive: -8.17%
Cc1cc(C)c(NC(=O)c2cc(S(=O)(=O)N3CCOCC3)ccc2F)c(C)c1		inactive: -1.94%
c1ccc(CSc2nnc(SCc3ccccn3)s2)nc1	inconclusive: 7.31 µM [activator, single point]	
Cn1c(C(=O)OC(C(=O)NCC2CCCO2)c2cccnc2)cc2sccc21 (configuration not stated)	inconclusive: 18.3 µM [inhibitor, single point]	
CC(C(=O)Nc1ccccc1)N(c1cccc(Cl)c1)S(C)(=O)=O (configuration not stated)		inactive: 5.17%
CC(C)N(C(=O)[C@H]1CC(CC(=O)NCCc2ccccn2)C(=O)N2CCc3c([nH]c4ccccc34)[C@]12C)C(C)C (some centres not stated)		inactive: 2.54%
O=C1Nc2ccc(S(=O)(=O)NCC3CCCO3)c3cccc1c23 (configuration not stated)		inactive: -7.34%
CC1CC(=O)c2c(cc3c(-c4c(O)cc(O)c5c(O)c6c(cc45)OC(C)CC6=O)c(O)cc(O)c3c2O)O1 (configuration not stated)	inconclusive: 8.2 µM [inhibitor, partial curve]	
COc1cccc(CN(C)CC(=O)Nc2sc3c(c2C#N)CCC3)c1	inconclusive: 29.1 µM [inhibitor, partial curve, poor fit]	
COc1cc(/C=C2\N=C(C)OC2=O)cc(OC)c1OC		inactive: 6.83%
CC(C)OCCCNC(=O)c1ccc2c(=O)n(Cc3ccc4c(c3)OCO4)c(=S)[nH]c2c1	inconclusive: 29.1 µM [activator, single point]	
COc1ccc(S(=O)(=O)CCC(=O)N2CCN(c3ccccc3F)CC2)cc1		inactive: 7.9%
COc1ccc(Nc2cc(C)c3cc([N+](=O)[O-])ccc3n2)cc1	inconclusive: 32.6 µM [inhibitor, partial curve, poor fit]	
COc1ccc(-c2ccc(-c3cc(=O)oc4cc(OC)c(OC)c(OC)c34)cc2)cc1F	inconclusive: 29.1 µM [inhibitor, single point]	
CN1CCN(c2nc(-c3ccccc3)nc(-c3ccc(F)cc3)c2C#N)CC1	inconclusive: 29.1 µM [inhibitor, single point]	
O=C(COc1cccc(C(F)(F)F)c1)NCC(c1cccs1)N1CCOCC1 (configuration not stated)		inactive: -2.93%
O=C(Cc1cccs1)N1CCN(c2nc(-c3ccc(Cl)cc3)cs2)CC1	inconclusive: 16.4 µM [inhibitor, single point]	
COc1ccc(NC(=O)c2cc(S(=O)(=O)N3CCCC3)oc2C)cc1	inconclusive: 20.6 µM [inhibitor, single point]	
CCCCCCn1c(N2CCN(c3ccccc3)CC2)nc2c1c(=O)n(C)c(=O)n2C		inactive: -25.3%
O=C(O)C(=O)Nc1nc(-c2ccc3c(c2)OCCO3)cs1	inconclusive: 14.6 µM [activator, partial curve]	

Shown as labelled records: two of the compounds above.
c1ccc(CSc2nnc(SCc3ccccn3)s2)nc1
  Potency: inconclusive: 7.31 µM [activator, single point]
O=C1Nc2ccc(S(=O)(=O)NCC3CCCO3)c3cccc1c23 (configuration not stated)
  activity change, negative = inhibition: inactive: -7.34%

Single records, as listed above:
`CN1CCN(c2nc(-c3ccccc3)nc(-c3ccc(F)cc3)c2C#N)CC1` is listed with Potency: inconclusive: 29.1 µM [inhibitor, single point]
`O=C1NC2(CCCCC2)C(=O)N1/N=C/c1ccc(O)cc1O` is listed with activity change, negative = inhibition: inactive: 11.1%

Later entries

SMILES	Potency	activity change, negative = inhibition
COc1cc2c(cc1OC)C(C)N(C(=O)CCc1c[nH]c3ccccc13)CC2 (configuration not stated)	inconclusive: 18.3 µM [inhibitor, partial curve, poor fit]	
CCOC(=O)c1c(C)[nH]c(C(=O)CN2C(=O)NC(C)(c3ccc4ccccc4c3)C2=O)c1C (configuration not stated)	active: 16.4 µM	
O=C(Nc1scc(-c2ccc(F)cc2)c1C(=O)O)c1ccco1	inconclusive: 16.4 µM [activator, partial curve]	
COc1ccc(C(=O)Nc2ncc3c(n2)CC(c2ccco2)CC3=O)cc1 (configuration not stated)	inconclusive: 18.4 µM [inhibitor, partial curve, poor fit]	
CCOC(=O)C1(Cc2ccccc2)CCN(Cc2cc(OC)c3c(c2)OCO3)CC1	inconclusive: 29.1 µM [inhibitor, single point]	
CCCNC(=O)c1ccccc1NC(=O)c1cccc(-n2cnnn2)c1	inconclusive: 18.3 µM [inhibitor, single point]	
COc1cnc(-c2ccccn2)nc1Oc1ccccc1Cl	inconclusive: 0.206 µM [inhibitor, full curve, poor fit]	
Nc1nn2cc(-c3ccc(Br)cc3)nc2c2ccccc12	inconclusive: 8.2 µM [activator, partial curve]	
Cc1cc2c(=O)n(C)c(SCC(=O)Nc3ccccc3C)nc2s1	inconclusive: 16.4 µM [inhibitor, single point]	
CCN(CC)c1cccc(OC2=NS(=O)(=O)c3ccccc32)c1	inconclusive: 2.91 µM [activator, partial curve, poor fit]	
FC(F)(Cl)c1nnc2ccc(Sc3ccccn3)nn12	inconclusive: 29.1 µM [inhibitor, single point]	
CC1(C)CC(N(Cc2ccc(F)cc2)C(=O)c2ccc(F)cc2)CCO1 (configuration not stated)	inconclusive: 32.6 µM [inhibitor, single point]	
CCS(=O)(=O)NCCCc1ccccc1		inactive: 0%
Cc1ccnc(NC(=O)/C=C/c2ccccc2[N+](=O)[O-])c1	inconclusive: 2.31 µM [activator, partial curve]	
CCSc1nnc(NC(=O)c2cccc(OCc3c(C)noc3C)c2)s1	inconclusive: 29.1 µM [inhibitor, single point]	
Cc1ccc(NC(=O)N2CCc3ccccc32)cc1C	inconclusive: 2.59 µM [activator, partial curve]	
O=C(O)C1C2CCC(O2)C1C(=O)Nc1ccc(Cl)cc1F (configuration not stated)	inconclusive: 25.1 µM [activator, single point]	
CCOc1ccc(-c2cnc3n2CCC3)cc1		inactive: 24.7%
COc1ccc(CN2CCN(C(=O)CC(C)C)CC2)cc1OC		inactive: 9.82%
CCOc1cc2[nH]c(=O)n(CCCN3CCN(c4ccc(OC)cc4)CC3)c(=O)c2cc1OCC		inactive: -29.5%
COc1ccc(C(=O)c2ccc(N3CCN(C(=O)c4ccc(F)cc4)CC3)c(F)c2)cc1Br	active: 20.6 µM	
COc1ccc(CCNC(=O)c2cc(-c3ccc(C)cc3O)n[nH]2)cc1OC		inactive: -25%
CCn1ncc(CN2CCC(C(=O)Nc3cccc(-c4cccc(F)c4)c3)CC2)c1C		inactive: 13.8%
CCN(CC)C(=O)[C@H]1CC(CC(=O)NCC23CC4CC(CC(C4)C2)C3)C(=O)N2CCc3c([nH]c4ccccc34)[C@]12C (some centres not stated)	inconclusive: 29.1 µM [inhibitor, single point]	

SMILES	Potency	activity change, negative = inhibition
Cc1csc2ncnc(N3CCN(C(=S)Nc4ccc(F)cc4F)CC3)c12	inconclusive: 13 µM [inhibitor, partial curve, poor fit]	
CC(C)CC1(C)N=C(c2ccccc2)C(=S)N1 (configuration not stated)		inactive: 4.81%
O=C(O)CC(NC(=O)Cc1ccccc1)c1ccccc1 (configuration not stated)	inconclusive: 0.184 µM [inhibitor, full curve, poor fit]	
CCOC(=O)c1sc(NC(=O)CN2CCN(c3ccccc3)CC2)nc1C	inconclusive: 20.6 µM [inhibitor, partial curve, poor fit]	
Cc1ccccc1N1C(=O)c2cccc3cccc(c23)C1=O		inactive: 2.12%
O=C(NCCC1=CCCCC1)c1cnccn1	inconclusive: 10.3 µM [activator, partial curve]	
Cc1ccc(-n2c(C)c3c(C)nnc(C)c3c2C)cc1N		inactive: 4.34%
Fc1ccc2nc(Nc3nc4c(F)cccc4s3)sc2c1	inconclusive: 10.3 µM [activator, partial curve]	
COc1ccc(Sc2ccc(NC(=O)c3ccccc3Cl)cc2C#N)cc1	inconclusive: 29.1 µM [inhibitor, single point]	
CSc1nccc(N/N=C/c2ccccc2)n1	inconclusive: 6.51 µM [activator, partial curve]	
CCCCCc1n[nH]c2c1CCCC2		inconclusive: 111% [activator]
COc1ccc(C2CC(c3ccccc3)=NN2C(=O)COC(=O)c2nc3nc(C)cc(C)n3n2)cc1 (configuration not stated)		inactive: 11.6%
COc1ccc(OCC(=O)NNC(=O)C(=O)Nc2ccccc2)cc1	inconclusive: 8.2 µM [activator, single point]	
CC1(C)CC(=O)C(N=Nc2cccc(S(=O)(=O)N3CCOCC3)c2)=C(O)C1	inconclusive: 13 µM [inhibitor, partial curve, poor fit]	
COC(=O)/C=C/CC(C)OS(N)(=O)=O (configuration not stated)		inactive: 1.21%
Cc1ccc(NC(=O)c2cc(-c3ccc4c(c3)OCO4)on2)cc1C	inconclusive: 13 µM [activator, partial curve]	
N#Cc1cc2c(nc1SCc1ccncc1)CCC2	inconclusive: 6.51 µM [activator, single point]	
CCOC(=O)C1CCN(S(=O)(=O)c2ccc(CNC(=O)c3ccccc3)s2)CC1		inactive: -0.753%
COc1ccc(CCNC(=S)Nc2cc(C)cc(C)c2)cc1		inactive: -4.66%
COc1ccc(Cl)cc1C(=O)NNC(=O)c1cc2ccccc2o1	inconclusive: 8.2 µM [activator, partial curve, poor fit]	
COc1ccc(/C=C/C(=O)NC(=S)NNC(=O)c2cc(OC)c(OC)c(OC)c2)cc1	active: 7.3 µM	
Cc1ccc(NC(=O)c2ccc3c(=O)n4c(nc3c2)CCCCC4)cc1F		inactive: -25.5%
NC(=O)c1ccccc1NC(=O)CSc1nc2c(c(=O)[nH]1)CCCC2		inactive: -0.151%
O=c1cc(O)c2ccccc2n1Cc1ccccc1Cl	inconclusive: 18.3 µM [inhibitor, single point]	
